Patent publication US20130303439A1, “CHIMERIC PEPTIDES INCLUDING A PENETRATING PEPTIDE AND A BINDING DOMAIN OF PP2A CATALYTIC SUBUNIT TO CASPASE-9” (Institut National de la Sante et de la Recherche Medicale …, priority 2010, published 2013)
At least one peptide structure holds a part that was inferred or is arguable (an end, a ring closure or a residue). Residues, ends and D or L forms follow the SMILES beside them.

Columns and labels:
[1] = test system: TS1αβ cells; experiment: Cell death assay (annexin V / PI flow cytometry); format: cell-based, murine; details: peptides at 150 μM
Description: An Annexin-V-FITC conjugated kit (Roche) was used for the assessment of outer leaflet exposure of phosphatidylserine (PS) in the plasma membrane of apoptotic cells. Staining was performed according to the manufacturer's instructions. A total of […] cells were analyzed by flow cytometry in a FACSCalibur cytofluometer (BD Biosciences). Necrotic cells were excluded by propidium iodide (PI) staining, and single annexin V positive cells were considered apoptotic. For apoptotic analysis the different peptides were used at 150 μM.
Using flow cytometry detection of annexin V and PI, the inventors analyzed the capacity of DPT-C9 to induce apoptosis in TS1αβ cells cultured in presence of IL-2. In contrast to non penetrating C9 peptide, DPT-C9 induced a 6-fold increase of apoptosis.

[2] = test system: PP1c; experiment: Pull down assay of biotinylated peptides with cell lysate, Western blot with PP1c antibody; format: binding, murine; details: cellular extracts from IL-2-stimulated cells
[3] = target: T1, caspase-9 (Mus musculus, UniProt Q8C3Q9); experiment: Pull down assay of biotinylated peptides with cell lysate, detection of caspase-9; format: binding, murine; details: cellular extracts from IL-2-stimulated cells
T1 construct: exponentially growing TS1αβ cells were first washed twice with PBS and then lysed; endogenous in cells; host or cells: TS1αβ murine T cell line, IL-2-stimulated, NP-40 lysate
T1 sequence (Q8C3Q9 1-454): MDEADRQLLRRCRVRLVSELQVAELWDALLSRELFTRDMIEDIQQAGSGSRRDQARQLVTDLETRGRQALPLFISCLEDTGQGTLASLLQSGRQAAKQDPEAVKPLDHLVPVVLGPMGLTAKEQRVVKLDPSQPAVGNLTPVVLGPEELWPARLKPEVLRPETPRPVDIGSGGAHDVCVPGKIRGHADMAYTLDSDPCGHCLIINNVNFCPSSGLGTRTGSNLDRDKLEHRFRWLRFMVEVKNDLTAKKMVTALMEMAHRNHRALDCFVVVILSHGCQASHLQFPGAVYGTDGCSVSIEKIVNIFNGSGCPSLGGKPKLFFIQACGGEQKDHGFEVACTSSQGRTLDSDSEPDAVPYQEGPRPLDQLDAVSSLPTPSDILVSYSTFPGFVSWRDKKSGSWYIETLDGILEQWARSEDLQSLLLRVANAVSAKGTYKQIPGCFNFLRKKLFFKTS

CC[C@H](C)[C@H](NC(=O)CNC(=O)[C@H](CC(=O)O)NC(=O)[C@H](CC(C)C)NC(=O)[C@@H](NC(=O)[C@H](CCC(=O)O)NC(=O)[C@@H](NC(=O)[C@@H](N)Cc1ccc(O)cc1)[C@@H](C)CC)[C@@H](C)O)C(=O)N[C@@H](CC(C)C)C(=O)N[C@@H](CCC(=O)O)C(=O)N[C@@H](CCC(N)=O)C(=O)N[C@@H](Cc1c[nH]c2ccccc12)C(=O)N[C@@H](C)C(=O)N[C@@H](CCCNC(=N)N)C(=O)N[C@@H](CO)C(=O)N[C@@H](CCC(=O)O)C(=O)N[C@@H](CC(=O)O)C(=O)N[C@@H](CC(C)C)C(=O)O [C9, YIETLDGILEQWARSEDL] (H-YIETLDGILEQWARSEDL-OH; N-terminus and C-terminus assumed)
induction of apoptosis / cell death (in words) [1]: In contrast | presence of PP1c associated to peptide [2]: did not detect | presence of caspase-9 associated to peptide [3]: did not detect
